{"source": "paper PMC12604490", "about": "“Dual immunomodulatory and antileishmanial potential of TLR7/8 agonists against Leishmania donovani” (Infection and Immunity, 2025)", "key": {"[1]": {"tested_on": "RAW 264.7 macrophages", "assay": "Cytotoxicity on RAW 264.7 macrophages (MTT, 48 h)", "assay_type": "cell-based", "details": "for RAW macrophage SI (antiamastigote): CC50 RAW 264.7 / IC50 amastigotes; for RAW macrophage SI (antipromastigote): CC50 RAW 264.7 / IC50 promastigotes", "experimental": "To evaluate the cytotoxicity and antiamastigote assay, RAW 264.7 macrophages were cultured in Dulbecco’s modified Eagle medium (HiMedia, India), 10% heat-inactivated fetal bovine serum (FBS, Biowest) and cultured at 37°C (5% CO2). The macrophage cell growth was evaluated daily, and the cells were subcultured into a new flask containing fresh cell culture medium once they reached about 80%–90% confluency.\n(§1) The cytotoxicity studies were performed using an immune cell line (RAW 264.7 macrophage) and non-immune epithelial cell line (HeLa) by 3-(4,5-dimethylthiazol-2-yl)-2,5-diphenyltetrazolium bromide (MTT) assay. A total of 7,000–10,000 cells/well were supplemented with different concentrations (2–64 μg/mL) of TLR7/8 agonists and incubated for 48 hours. MTT (1 mg/mL) (Hi-Media) was added to each well and kept for 4 hours. The formazan crystals formed were dissolved in 100 µL of dimethyl ulfoxide (DMSO), and absorbance at 550 nm was recorded using a microreader. AmB, MF, and Resiquimod were used as reference drugs. The percentage of cytotoxicity was calculated as [(absorbance of treated well − absorbance of blank) / (absorbance of untreated well − absorbance of blank)] × 100. The CC50 value was calculated with SPSS software. The SI of TLR7/8 agonists was obtained by calculating the ratio of CC50 (RAW 264.7 macrophage and HeLa cells) and IC50 (antipromastigote and antiamastigotes) ([21], [23])."}, "[2]": {"tested_on": "HeLa cells", "assay": "Cytotoxicity on HeLa cells (MTT, 48 h)", "assay_type": "cell-based, human", "details": "for HeLa cell SI (antiamastigote): CC50 HeLa / IC50 amastigotes; for HeLa cell SI (antipromastigote): CC50 HeLa / IC50 promastigotes", "experimental": "HeLa cells (human cervical epithelial cell line) were grown in RPMI-1640 (HiMedia) with 10% FBS and cultured at 37°C (5% CO2). The cells were evaluated daily using an inverted microscope for any contamination and subcultured after reaching confluency ([21]).\nas §1"}}, "data": [{"smiles": "CCCCc1nc2c(N)nc3ccccc3c2n1Cc1ccc(CNC(=O)OC(C)(C)C)cc1", "note": "[compound 7]", "values": [{"measurement": "RAW macrophage SI (antiamastigote)", "setting": "[1]", "result": 1.21}, {"measurement": "RAW macrophage SI (antipromastigote)", "setting": "[1]", "result": 1.64}, {"measurement": "HeLa cell SI (antiamastigote)", "setting": "[2]", "result": 0.86}, {"measurement": "HeLa cell SI (antipromastigote)", "setting": "[2]", "result": 1.12}]}, {"smiles": "CCCCc1nc2c(N)nc3ccccc3c2n1CC(C)C", "note": "[compound 1]", "values": [{"measurement": "RAW macrophage SI (antiamastigote)", "setting": "[1]", "result": 1.76}, {"measurement": "RAW macrophage SI (antipromastigote)", "setting": "[1]", "result": 2.8}, {"measurement": "HeLa cell SI (antiamastigote)", "setting": "[2]", "result": 1.36}, {"measurement": "HeLa cell SI (antipromastigote)", "setting": "[2]", "result": 2.21}]}, {"smiles": "CCCCc1nc2c(N)nc3ccccc3c2n1Cc1ccc(O)c(O)c1", "note": "[compound 5]", "values": [{"measurement": "RAW macrophage SI (antiamastigote)", "setting": "[1]", "result": 10.45}, {"measurement": "RAW macrophage SI (antipromastigote)", "setting": "[1]", "result": 15.08}, {"measurement": "HeLa cell SI (antiamastigote)", "setting": "[2]", "result": 9.87}, {"measurement": "HeLa cell SI (antipromastigote)", "setting": "[2]", "result": 14.25}]}, {"smiles": "CCCCNC(=O)c1ccc(Cn2c(CCCC)nc3c(N)nc4ccccc4c32)cc1", "note": "[compound 3]", "values": [{"measurement": "RAW macrophage SI (antiamastigote)", "setting": "[1]", "result": 1.38}, {"measurement": "RAW macrophage SI (antipromastigote)", "setting": "[1]", "result": 1.87}, {"measurement": "HeLa cell SI (antiamastigote)", "setting": "[2]", "result": 0.94}, {"measurement": "HeLa cell SI (antipromastigote)", "setting": "[2]", "result": 1.28}]}, {"smiles": "CCCCc1nc2c(N)nc3ccccc3c2n1Cc1ccc(C(N)=O)cc1", "note": "[compound 6]", "values": [{"measurement": "RAW macrophage SI (antiamastigote)", "setting": "[1]", "result": 0.94}, {"measurement": "RAW macrophage SI (antipromastigote)", "setting": "[1]", "result": 1.31}, {"measurement": "HeLa cell SI (antiamastigote)", "setting": "[2]", "result": 0.64}, {"measurement": "HeLa cell SI (antipromastigote)", "setting": "[2]", "result": 0.89}]}, {"smiles": "CCCCn1cc2c(n1)c(N)nc1ccccc12", "note": "[compound 11]", "values": [{"measurement": "RAW macrophage SI (antiamastigote)", "setting": "[1]", "result": 1.01}, {"measurement": "RAW macrophage SI (antipromastigote)", "setting": "[1]", "result": 1.44}, {"measurement": "HeLa cell SI (antiamastigote)", "setting": "[2]", "result": 0.7}, {"measurement": "HeLa cell SI (antipromastigote)", "setting": "[2]", "result": 1}]}, {"smiles": "CCCCc1nc2c(N)nc3ccccc3c2n1Cc1cccc(CNC(=O)OC(C)(C)C)c1", "note": "[compound 8]", "values": [{"measurement": "RAW macrophage SI (antiamastigote)", "setting": "[1]", "result": 3.12}, {"measurement": "RAW macrophage SI (antipromastigote)", "setting": "[1]", "result": 4.38}, {"measurement": "HeLa cell SI (antiamastigote)", "setting": "[2]", "result": 2.83}, {"measurement": "HeLa cell SI (antipromastigote)", "setting": "[2]", "result": 2.02}]}, {"smiles": "CCCCc1nc2c(N)nc3ccccc3c2n1Cc1ccc(Cl)cc1", "note": "[compound 2]", "values": [{"measurement": "RAW macrophage SI (antiamastigote)", "setting": "[1]", "result": 1.02}, {"measurement": "RAW macrophage SI (antipromastigote)", "setting": "[1]", "result": 1.61}, {"measurement": "HeLa cell SI (antiamastigote)", "setting": "[2]", "result": 0.68}, {"measurement": "HeLa cell SI (antipromastigote)", "setting": "[2]", "result": 1.08}]}]}
